According to the supplement of paper PMC12024529:
Structures can show the parent of a compound that is named as a salt. The list shows a part of the results. Plates or batches differ in their baseline, so values are only roughly comparable.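 HEK293 lines stably express B-domain-deleted factor VIII fused to Gaussia luciferase, wild type or a misfolding-prone missense mutant. Scores equal triplicate-well mean luminescence minus DMSO mean, divided by DMSO standard deviation; scores of 2 or higher are hits. Low scores may indicate reduced secretion or worse cell viability.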

Legend:
HEK293 WT BDD-FVIII-Gluc = experiment: secreted FVIII-Gluc luciferase Z-score vs DMSO control; higher = more FVIII-Gluc secretion; settings: 5 µM; 24 h
[1] = system: HEK293 p.N1941S BDD-FVIII-Gluc; experiment: as above; settings: 5 µM; 24 h

| SMILES | secreted FVIII-Gluc luciferase Z-score (HEK293 WT BDD-FVIII-Gluc) | secreted FVIII-Gluc luciferase Z-score [1] |
| --- | --- | --- |
| O=S(=O)(F)Cc1ccccc1 [PMSF (Phenylmethylsulfonyl Fluoride)] | inactive: -1.74 | inactive: -0.227 |
| O=c1[nH]c2ccccc2n1CCCN1CCC(n2c(=O)[nH]c3cc(Cl)ccc32)CC1 [Domperidone (Motilium)] | inactive: -2.79 | inactive: -2.54 |
| CCOC(=O)c1cncn1[C@H](C)c1ccccc1 [Etomidate] | inactive: -5.6 | inactive: -1.12 |
| C[N+]1(C)[C@@H]2C[C@@H](OC(=O)[C@H](CO)c3ccccc3)C[C@H]1[C@@H]1O[C@@H]12 [Methscopolamine (Pamine)] | inactive: -1.52 | inactive: -0.551 |
| COC(=O)C1=CCCN(C)C1 [Arecoline] | inactive: 1.63 | inactive: -0.395 |
| Cc1cc(C(C#N)c2ccc(Cl)cc2)c(Cl)cc1NC(=O)c1cc(I)cc(I)c1O (stereo not given) [Closantel] | active: 2.52 | inactive: -0.158 |
| O=c1[nH]c2ccccc2n1C1CCN(CCCC(c2ccc(F)cc2)c2ccc(F)cc2)CC1 [Pimozide] | inactive: -4 | inactive: -0.213 |
| C#C[C@]1(O)C=C[C@H]2[C@@H]3CCC4=CC(=O)CC[C@@H]4[C@H]3CC[C@@]21CC [Gestodene] | inactive: -0.324 | inactive: -1.85 |
| Cc1cc(O)ccc1Cl [Chlorocresol] | inactive: 0.108 | inactive: 0.132 |
| CCC1=C[C@H]2CN3CCc4c([nH]c5ccccc45)[C@](C(=O)OC)(C2)[C@H]13 [Catharanthine] | inactive: -0.934 | inactive: -0.119 |
| CN(C)[C@@H]1C(=O)C(C(N)=O)=C(O)[C@@]2(O)C(=O)C3=C(O)c4c(O)cccc4[C@@](C)(O)[C@H]3C[C@@H]12 [Tetracycline HCl] | inactive: 0.706 | inactive: -1.14 |
| O=P1(NCCCl)OCCCN1CCCl (stereo not given) [Ifosfamide] | inactive: -6.24 | inactive: -0.314 |
| CC(O)(CS(=O)(=O)c1ccc(F)cc1)C(=O)Nc1ccc(C#N)c(C(F)(F)F)c1 (stereo not given) [Bicalutamide (Casodex)] | inactive: 0.181 | inactive: 0.449 |
| Cc1cccc(C)c1NC1=NCCCS1 [Xylazine HCl] | inactive: -1.56 | inactive: -1.07 |
| O=C(O)c1nn(Cc2ccc(Cl)cc2Cl)c2ccccc12 [Lonidamine] | inactive: -2.9 | inactive: -0.598 |
| O=C1CC[C@@]2(O)[C@H]3Cc4ccc(O)c5c4[C@@]2(CCN3CC2CC2)[C@H]1O5 [Naltrexone HCl] | inactive: -0.151 | inactive: 0.711 |
| Cc1cccc([C@H](C)c2c[nH]cn2)c1C [Dexmedetomidine] | inactive: -0.183 | inactive: 0.826 |
| CC(C)c1c(CN(C)C(C)Cc2ccccc2)n(C)n(-c2ccccc2)c1=O (stereo not given) [Famprofazone] | inactive: -0.581 | inactive: 0.109 |
| CN1[C@@H]2C[C@@H](OC(=O)[C@H](CO)c3ccccc3)C[C@H]1[C@@H]1O[C@@H]12 [Scopolamine hydrobromide] | inactive: -1.19 | inactive: -1.66 |
| CC(=O)Nc1cc([As](=O)(O)O)ccc1O [Acetarsone] | inactive: -1.19 | inactive: -0.537 |

Given tab-delimited: two of the compounds above.
SMILES	secreted FVIII-Gluc luciferase Z-score (HEK293 WT BDD-FVIII-Gluc)	secreted FVIII-Gluc luciferase Z-score [1]
O=c1[nH]c2ccccc2n1CCCN1CCC(n2c(=O)[nH]c3cc(Cl)ccc32)CC1 [Domperidone (Motilium)]	inactive: -2.79	inactive: -2.54
CCOC(=O)c1cncn1[C@H](C)c1ccccc1 [Etomidate]	inactive: -5.6	inactive: -1.12

More entries

| SMILES | secreted FVIII-Gluc luciferase Z-score (HEK293 WT BDD-FVIII-Gluc) | secreted FVIII-Gluc luciferase Z-score [1] |
| --- | --- | --- |
| C[N+](C)(C)CCCCCCCCCC[N+](C)(C)C [Decamethonium bromide] | inactive: -1.38 | inactive: -0.0544 |
| NCCc1c[nH]c2ccc(O)cc12 [Serotonin HCl] | inactive: 1.01 | inactive: 0.404 |
| CC(=O)OC12COC1CC(O)C1(C)C(=O)C(O)C3=C(C)C(O)CC(O)(C(OC(=O)c4ccccc4)C21)C3(C)C (stereo not given) [10-Deacetylbaccatin-III] | inactive: -0.751 | inactive: -3.36 |
| C[C@]12CC[C@H]3[C@@H](CC[C@@]45O[C@@H]4C(O)=C(C#N)C[C@]35C)[C@@H]1CC[C@@H]2O [Trilostane] | inactive: -4.12 | inactive: -0.264 |
| C/C=C(\C)C(=O)N[C@@H](c1ccccc1)[C@@H](O)C(=O)O[C@H]1C[C@@]2(O)[C@@H](OC(=O)c3ccccc3)[C@@H]3[C@]4(OC(C)=O)CO[C@@H]4C[C@H](O)[C@@]3(C)C(=O)[C@H](OC(C)=O)C(=C1C)C2(C)C [Cephalomannine] | inactive: -4.73 | inactive: -5.98 |
| CN(C)C(=O)Oc1ccc[n+](C)c1 [Pyridostigmine Bromide (Mestinon)] | inactive: -4.54 | inactive: 0.709 |
| Cc1cccc(C(C)c2c[nH]cn2)c1C (stereo not given) [Medetomidine HCl] | inactive: 0.716 | inactive: -0.969 |
| Cc1cccc(C)c1NC(=O)CN1CCCC1=O [Nefiracetam (Translon)] | inactive: -2.59 | inactive: -2.23 |
| CC[C@@H](C(N)=O)N1CCCC1=O [Levetiracetam] | inactive: -3.49 | inactive: -0.505 |
| C[C@]12CC[C@H](O)CC1=CC[C@@H]1[C@@H]2CC[C@]2(C)C(=O)CC[C@@H]12 [Dehydroepiandrosterone (DHEA)] | inactive: -2.95 | inactive: -0.314 |
| COc1ccc(C(=O)N2CCCC2=O)cc1 [Aniracetam] | inactive: 1.72 | inactive: -0.242 |
| COc1ccc(C(CN(C)C)C2(O)CCCCC2)cc1 (stereo not given) [Venlafaxine] | inactive: -0.645 | inactive: -0.093 |
| O=C(O[C@H]1C[N+]2(CCCOc3ccccc3)CCC1CC2)C(O)(c1cccs1)c1cccs1 [Aclidinium Bromide] | inactive: -0.976 | inactive: 0.29 |
| C=C1C[C@@H]2[C@H](CC[C@]3(C)C(=O)CC[C@@H]23)[C@@]2(C)C=CC(=O)C=C12 [Exemestane] | inactive: 0.166 | inactive: 0.824 |
| C=C1CC[C@@]2(O)[C@H]3Cc4ccc(O)c5c4[C@@]2(CCN3CC2CC2)[C@H]1O5 [Nalmefene HCl] | inactive: -0.142 | inactive: 1.5 |
| c1ccc2c(c1)sc1ccccc12 [Dibenzothiophene] | inactive: -2.85 | inactive: -0.162 |
| CC(C)=CC1C(C(=O)OCc2cccc(Oc3ccccc3)c2)C1(C)C (stereo not given) [Phenothrin] | inactive: -0.222 | inactive: 1.37 |
| Cn1c(CCCC(=O)O)nc2cc(N(CCCl)CCCl)ccc21 [Bendamustine HCL] | inactive: -0.0702 | inactive: -4.72 |
| CN(C)[C@@H]1C(=O)C(C(N)=O)=C(O)[C@@]2(O)C(=O)C3=C(O)c4c(O)cccc4[C@@](C)(O)[C@H]3[C@H](O)[C@@H]12 [Oxytetracycline dihydrate] | inactive: -0.451 | inactive: -0.369 |
| CC[C@@]1(O)C(=O)OCc2c1cc1n(c2=O)Cc2cc3ccccc3nc2-1 [Camptothecin] | inactive: -13.9 | inactive: -5.81 |
